Laboratory results: US9371315B2, “N-(tetrazol-5-yl)- and N-(triazol-5-yl)arylcarboxamide salts and use thereof as herbicides” (BAYER CROPSCIENCE AG, priority 2012, dated 2016)
Some entries share one result that the patent states for a list of compounds. For at least one compound, name, drawing or mass did not settle the structure.

Tests used:
Assay type in all cases: in vivo
Echinochloa crus galli [1] = experiment: Pre-emergence herbicidal action against harmful plants; conditions: 320 g/ha, assessed visually after 3 weeks vs untreated controls
Setaria viridis = experiment: as above; conditions: 320 g/ha, assessed visually after 3 weeks vs untreated controls
Abutilon theophrasti = experiment: as above; conditions: 320 g/ha, assessed visually after 3 weeks vs untreated controls
Amaranthus retroflexus = experiment: as above; conditions: 320 g/ha, assessed visually after 3 weeks vs untreated controls
Matricaria inodora [2] = experiment: as above; conditions: 320 g/ha, assessed visually after 3 weeks vs untreated controls
Stellaria media [3] = experiment: as above; conditions: 320 g/ha, assessed visually after 3 weeks vs untreated controls
Viola tricolor = experiment: as above; conditions: 320 g/ha, assessed visually after 3 weeks vs untreated controls
Veronica persica [4] = experiment: as above; conditions: 320 g/ha, assessed visually after 3 weeks vs untreated controls
Echinochloa crus galli [5] = experiment: Post-emergence herbicidal action against harmful plants; conditions: 80 g/ha, one-leaf stage, assessed visually after about 3 weeks vs untreated controls
Matricaria inodora [6] = experiment: as above; conditions: 80 g/ha, one-leaf stage, assessed visually after about 3 weeks vs untreated controls
Pharbitis purpureum = experiment: as above; conditions: 80 g/ha, one-leaf stage, assessed visually after about 3 weeks vs untreated controls
Stellaria media [7] = experiment: as above; conditions: 80 g/ha, one-leaf stage, assessed visually after about 3 weeks vs untreated controls
Veronica persica [8] = experiment: as above; conditions: 80 g/ha, one-leaf stage, assessed visually after about 3 weeks vs untreated controls

C[N+](C)(C)CCO.Cn1nnnc1[N-]C(=O)c1ccc(C(F)(F)F)cc1S(C)(=O)=O [1-4]
at least 80%: herbicidal activity in percent (%) (Echinochloa crus galli [1]) | herbicidal activity in percent (%) (Setaria viridis) | herbicidal activity in percent (%) (Abutilon theophrasti) | herbicidal activity in percent (%) (Amaranthus retroflexus) | herbicidal activity in percent (%) (Matricaria inodora [2]) | herbicidal activity in percent (%) (Stellaria media [3]) | herbicidal activity in percent (%) (Viola tricolor) | herbicidal activity in percent (%) (Veronica persica [4])

CCn1nnnc1[N-]C(=O)c1ccc(C(F)(F)F)c(S(C)(=O)=O)c1C.[Na+] [1-11]
at least 80%: herbicidal activity in percent (%) (Echinochloa crus galli [1]) | herbicidal activity in percent (%) (Setaria viridis) | herbicidal activity in percent (%) (Abutilon theophrasti) | herbicidal activity in percent (%) (Amaranthus retroflexus) | herbicidal activity in percent (%) (Matricaria inodora [2]) | herbicidal activity in percent (%) (Stellaria media [3]) | herbicidal activity in percent (%) (Viola tricolor) | herbicidal activity in percent (%) (Veronica persica [4]) | herbicidal action in percent (%) (Echinochloa crus galli [5]) | herbicidal action in percent (%) (Matricaria inodora [6]) | herbicidal action in percent (%) (Pharbitis purpureum) | herbicidal action in percent (%) (Stellaria media [7]) | herbicidal action in percent (%) (Veronica persica [8])

CCn1nnnc1[N-]C(=O)c1ccc(C(F)(F)F)c(S(C)(=O)=O)c1C.C[N+](C)(C)CCO [1-12]
at least 80%: herbicidal activity in percent (%) (Echinochloa crus galli [1]) | herbicidal activity in percent (%) (Setaria viridis) | herbicidal activity in percent (%) (Abutilon theophrasti) | herbicidal activity in percent (%) (Amaranthus retroflexus) | herbicidal activity in percent (%) (Matricaria inodora [2]) | herbicidal activity in percent (%) (Stellaria media [3]) | herbicidal activity in percent (%) (Viola tricolor) | herbicidal activity in percent (%) (Veronica persica [4]) | herbicidal action in percent (%) (Echinochloa crus galli [5]) | herbicidal action in percent (%) (Matricaria inodora [6]) | herbicidal action in percent (%) (Pharbitis purpureum) | herbicidal action in percent (%) (Stellaria media [7]) | herbicidal action in percent (%) (Veronica persica [8])

CCCn1nnnc1[N-]C(=O)c1ccc(C(F)(F)F)c(S(C)(=O)=O)c1C.[Na+] [1-13]
at least 80%: herbicidal activity in percent (%) (Echinochloa crus galli [1]) | herbicidal activity in percent (%) (Setaria viridis) | herbicidal activity in percent (%) (Abutilon theophrasti) | herbicidal activity in percent (%) (Amaranthus retroflexus) | herbicidal activity in percent (%) (Matricaria inodora [2]) | herbicidal activity in percent (%) (Stellaria media [3]) | herbicidal activity in percent (%) (Viola tricolor) | herbicidal activity in percent (%) (Veronica persica [4]) | herbicidal action in percent (%) (Echinochloa crus galli [5]) | herbicidal action in percent (%) (Matricaria inodora [6]) | herbicidal action in percent (%) (Pharbitis purpureum) | herbicidal action in percent (%) (Stellaria media [7]) | herbicidal action in percent (%) (Veronica persica [8])

Cc1c(C(=O)[N-]c2nnnn2C)ccc(S(C)(=O)=O)c1-n1cccn1.[Na+] [1-36]
at least 80%: herbicidal action in percent (%) (Echinochloa crus galli [5]) | herbicidal action in percent (%) (Matricaria inodora [6]) | herbicidal action in percent (%) (Pharbitis purpureum) | herbicidal action in percent (%) (Stellaria media [7]) | herbicidal action in percent (%) (Veronica persica [8])

COc1c(S(C)(=O)=O)ccc(C(=O)[N-]c2nnnn2C)c1C.[Na+] [1-38]
at least 80%: herbicidal action in percent (%) (Echinochloa crus galli [5]) | herbicidal action in percent (%) (Matricaria inodora [6]) | herbicidal action in percent (%) (Pharbitis purpureum) | herbicidal action in percent (%) (Stellaria media [7]) | herbicidal action in percent (%) (Veronica persica [8])

COc1c(C(=O)[N-]c2nnnn2C)ccc(C(F)(F)F)c1[S+](C)[O-].C[N+](C)(C)CCO (centres unmarked) [1-81]
at least 80%: herbicidal action in percent (%) (Echinochloa crus galli [5]) | herbicidal action in percent (%) (Matricaria inodora [6]) | herbicidal action in percent (%) (Pharbitis purpureum) | herbicidal action in percent (%) (Stellaria media [7]) | herbicidal action in percent (%) (Veronica persica [8])

COc1c(C(=O)[N-]c2nnnn2C)ccc(C(F)F)c1[S+](C)[O-].C[N+](C)(C)CCO (centres unmarked) [1-92]
at least 80%: herbicidal activity in percent (%) (Echinochloa crus galli [1]) | herbicidal activity in percent (%) (Setaria viridis) | herbicidal activity in percent (%) (Abutilon theophrasti) | herbicidal activity in percent (%) (Amaranthus retroflexus) | herbicidal activity in percent (%) (Matricaria inodora [2]) | herbicidal activity in percent (%) (Stellaria media [3]) | herbicidal activity in percent (%) (Viola tricolor) | herbicidal activity in percent (%) (Veronica persica [4])

Cc1ccc(C(=O)[N-]c2nnnn2C)c(Cl)c1S(C)(=O)=O.[Na+] [1-106]
at least 80%: herbicidal action in percent (%) (Echinochloa crus galli [5]) | herbicidal action in percent (%) (Matricaria inodora [6]) | herbicidal action in percent (%) (Pharbitis purpureum) | herbicidal action in percent (%) (Stellaria media [7]) | herbicidal action in percent (%) (Veronica persica [8])

C[N+](C)(C)CCO.Cn1nnnc1[N-]C(=O)c1ccc(C(F)(F)F)nc1Cl [3-10]
at least 80%: herbicidal activity in percent (%) (Echinochloa crus galli [1]) | herbicidal activity in percent (%) (Setaria viridis) | herbicidal activity in percent (%) (Abutilon theophrasti) | herbicidal activity in percent (%) (Amaranthus retroflexus) | herbicidal activity in percent (%) (Matricaria inodora [2]) | herbicidal activity in percent (%) (Stellaria media [3]) | herbicidal activity in percent (%) (Viola tricolor) | herbicidal activity in percent (%) (Veronica persica [4])

Cn1nnnc1NC(=O)c1ccc(C(F)(F)F)cc1S(C)(=O)=O.[Na] [No. 1-2, 2-methylsulfonyl-4-trifluoromethyl-N-(1-methyltetrazol-5-yl)benzamide-sodium salt]
at least 80%: herbicidal action in percent (%) (Echinochloa crus galli [5]) | herbicidal action in percent (%) (Matricaria inodora [6]) | herbicidal action in percent (%) (Pharbitis purpureum) | herbicidal action in percent (%) (Stellaria media [7]) | herbicidal action in percent (%) (Veronica persica [8])

C[N+](C)(C)CCO.Cn1nnnc1[N-]C(=O)c1ccc(C(F)(F)F)cc1S(C)(=O)=O [No. 1-4]
at least 80%: herbicidal action in percent (%) (Echinochloa crus galli [5]) | herbicidal action in percent (%) (Matricaria inodora [6]) | herbicidal action in percent (%) (Pharbitis purpureum) | herbicidal action in percent (%) (Stellaria media [7]) | herbicidal action in percent (%) (Veronica persica [8])

Cc1c(C(=O)[N-]c2nnnn2C)ccc(C(F)(F)F)c1[S+](C)[O-].[Na+] (centres unmarked) [No. 1-7]
at least 80%: herbicidal action in percent (%) (Echinochloa crus galli [5]) | herbicidal action in percent (%) (Matricaria inodora [6]) | herbicidal action in percent (%) (Pharbitis purpureum) | herbicidal action in percent (%) (Stellaria media [7]) | herbicidal action in percent (%) (Veronica persica [8])

C[N+](C)(C)CCO.Cc1c(C(=O)[N-]c2nnnn2C)ccc(C(F)(F)F)c1[S+](C)[O-] (centres unmarked) [No. 1-8]
at least 80%: herbicidal action in percent (%) (Echinochloa crus galli [5]) | herbicidal action in percent (%) (Matricaria inodora [6]) | herbicidal action in percent (%) (Pharbitis purpureum) | herbicidal action in percent (%) (Stellaria media [7]) | herbicidal action in percent (%) (Veronica persica [8])

COCc1nc(C(F)(F)F)ccc1C(=O)[N-]c1nnnn1C.[Na+] [No. 3-4]
at least 80%: herbicidal activity in percent (%) (Echinochloa crus galli [1]) | herbicidal activity in percent (%) (Setaria viridis) | herbicidal activity in percent (%) (Abutilon theophrasti) | herbicidal activity in percent (%) (Amaranthus retroflexus) | herbicidal activity in percent (%) (Matricaria inodora [2]) | herbicidal activity in percent (%) (Stellaria media [3]) | herbicidal activity in percent (%) (Viola tricolor) | herbicidal activity in percent (%) (Veronica persica [4])

COCc1nc(C(F)(F)F)ccc1C(=O)[N-]c1nnnn1C.C[N+](C)(C)CCO [No. 3-5]
at least 80%: herbicidal activity in percent (%) (Echinochloa crus galli [1]) | herbicidal activity in percent (%) (Setaria viridis) | herbicidal activity in percent (%) (Abutilon theophrasti) | herbicidal activity in percent (%) (Amaranthus retroflexus) | herbicidal activity in percent (%) (Matricaria inodora [2]) | herbicidal activity in percent (%) (Stellaria media [3]) | herbicidal activity in percent (%) (Viola tricolor) | herbicidal activity in percent (%) (Veronica persica [4])
